The other results are listed elsewhere or left out. The signal is at background level for most entries.
Legend:
Test in all cases: fluorescence intensity of antibody binding to polysaccharide-coupled beads; higher = stronger binding
[1] = target: pneumococcal polysaccharide Pn23F
[2] = target: pneumococcal polysaccharide Pn24A
[3] = target: pneumococcal polysaccharide Pn24B
[4] = target: pneumococcal polysaccharide Pn24F
[5] = target: pneumococcal polysaccharide Pn25A
[6] = target: pneumococcal polysaccharide Pn25F
[7] = target: pneumococcal polysaccharide Pn27
[8] = target: pneumococcal polysaccharide Pn28A
[9] = target: pneumococcal polysaccharide Pn28F
[10] = target: pneumococcal polysaccharide Pn29
[11] = target: pneumococcal polysaccharide Pn3
[12] = target: pneumococcal polysaccharide Pn31
[13] = antibody concentration 2.8593 ng/mL
[14] = antibody concentration 15.2894 ng/mL
[15] = antibody concentration 81.7561 ng/mL
[16] = antibody concentration 437.17 ng/mL
[17] = antibody concentration 2337.65 ng/mL
[18] = antibody concentration 12500 ng/mL
[19] = antibody concentration 0.1 ng/mL
[20] = antibody concentration 0.534724 ng/mL

B1: 4-173.2 (protein)
chain 1: QLQLQESGPGLVKPSETLSLTCAVSGGSINSNYWSWIRQPPGKGLDWIGRISGSGGSTDYNPSLKSRVTISTDTSKTQFSLKLRSVTAADTAVYYCGRGSYQIDYWGQGILVTVSS
chain 2: QAALTQPPSMSGSPGQSVTISCTGTSSDIGGYNRVSWYQQYPGKAPKLMIYEVSKRPSGVSDRFSGSKSGNTASLTISGLQAADEADYYCSSYAGSKALFGGGTRLTVL
fluorescence intensity [1, 13]: 18.5 MFI | fluorescence intensity [1, 14]: 20 MFI | fluorescence intensity [1, 15]: 18.2 MFI | fluorescence intensity [1, 16]: 20 MFI | fluorescence intensity [1, 17]: 26 MFI | fluorescence intensity [1, 18]: 32.5 MFI | fluorescence intensity [2, 19]: 16 MFI | fluorescence intensity [2, 20]: 15.5 MFI | fluorescence intensity [2, 13]: 16 MFI | fluorescence intensity [2, 14]: 15.2 MFI | fluorescence intensity [2, 15]: 15 MFI | fluorescence intensity [2, 16]: 16.5 MFI | fluorescence intensity [2, 17]: 17.5 MFI | fluorescence intensity [2, 18]: 34.5 MFI | fluorescence intensity [3, 19]: 18 MFI | fluorescence intensity [3, 20]: 18 MFI | fluorescence intensity [3, 13]: 17 MFI | fluorescence intensity [3, 14]: 18 MFI | fluorescence intensity [3, 15]: 17.2 MFI | fluorescence intensity [3, 16]: 20 MFI | fluorescence intensity [3, 17]: 24.5 MFI | fluorescence intensity [3, 18]: 58.5 MFI | fluorescence intensity [4, 19]: 18.5 MFI | fluorescence intensity [4, 20]: 18.5 MFI | fluorescence intensity [4, 13]: 17 MFI | fluorescence intensity [4, 14]: 16.5 MFI | fluorescence intensity [4, 15]: 15.8 MFI | fluorescence intensity [4, 16]: 18.5 MFI | fluorescence intensity [4, 17]: 26.5 MFI | fluorescence intensity [4, 18]: 44.8 MFI | fluorescence intensity [5, 19]: 24 MFI | fluorescence intensity [5, 20]: 25 MFI | fluorescence intensity [5, 13]: 23 MFI | fluorescence intensity [5, 14]: 22.8 MFI | fluorescence intensity [5, 15]: 25 MFI | fluorescence intensity [5, 16]: 26.5 MFI | fluorescence intensity [5, 17]: 30 MFI | fluorescence intensity [5, 18]: 37.2 MFI | fluorescence intensity [6, 19]: 31.5 MFI | fluorescence intensity [6, 20]: 29.5 MFI | fluorescence intensity [6, 13]: 30.5 MFI | fluorescence intensity [6, 14]: 32 MFI | fluorescence intensity [6, 15]: 31.5 MFI | fluorescence intensity [6, 16]: 32.5 MFI | fluorescence intensity [6, 17]: 35.5 MFI | fluorescence intensity [6, 18]: 47.5 MFI | fluorescence intensity [7, 19]: 16.2 MFI | fluorescence intensity [7, 20]: 16.5 MFI | fluorescence intensity [7, 13]: 17.2 MFI | fluorescence intensity [7, 14]: 17.5 MFI | fluorescence intensity [7, 15]: 18.8 MFI | fluorescence intensity [7, 16]: 20.5 MFI | fluorescence intensity [7, 17]: 36 MFI | fluorescence intensity [7, 18]: 200 MFI | fluorescence intensity [8, 19]: 25.5 MFI | fluorescence intensity [8, 20]: 27 MFI | fluorescence intensity [8, 13]: 28 MFI | fluorescence intensity [8, 14]: 26.8 MFI | fluorescence intensity [8, 15]: 29 MFI | fluorescence intensity [8, 16]: 28 MFI | fluorescence intensity [8, 17]: 30 MFI | fluorescence intensity [8, 18]: 36.2 MFI | fluorescence intensity [9, 19]: 29.5 MFI | fluorescence intensity [9, 20]: 31.5 MFI | fluorescence intensity [9, 13]: 30 MFI | fluorescence intensity [9, 14]: 31.5 MFI | fluorescence intensity [9, 15]: 31.2 MFI | fluorescence intensity [9, 16]: 30 MFI | fluorescence intensity [9, 17]: 35.5 MFI | fluorescence intensity [9, 18]: 80 MFI | fluorescence intensity [10, 19]: 16 MFI | fluorescence intensity [10, 20]: 15 MFI | fluorescence intensity [10, 13]: 16.5 MFI | fluorescence intensity [10, 14]: 16.2 MFI | fluorescence intensity [10, 15]: 16 MFI | fluorescence intensity [10, 16]: 19 MFI | fluorescence intensity [10, 17]: 26.5 MFI | fluorescence intensity [10, 18]: 85.5 MFI | fluorescence intensity [11, 19]: 16 MFI | fluorescence intensity [11, 20]: 43.5 MFI | fluorescence intensity [11, 13]: 140 MFI | fluorescence intensity [11, 14]: 614 MFI | fluorescence intensity [11, 15]: 3320 MFI | fluorescence intensity [11, 16]: 8480 MFI | fluorescence intensity [11, 17]: 9420 MFI | fluorescence intensity [11, 18]: 9640 MFI | fluorescence intensity [12, 19]: 14.5 MFI | fluorescence intensity [12, 20]: 13.8 MFI | fluorescence intensity [12, 13]: 14 MFI | fluorescence intensity [12, 14]: 15.5 MFI

From the supplement of paper PMC11438910
